The results in this text go back to patent US20030121063.

The exact form of at least one protein or probe is not confirmed. A weaker result is weaker than the reference pair of the same experiment.

For this data set, the target named is L1 ENp (L1 ORF2 endonuclease domain) (Homo sapiens) (UniProt O00370). Briefly: enzyme reaction in vitro. To be noted: purified recombinant protein, protein details: His6 (pET15b, E. coli BL21(DE3)).

Consider “GAGGCCTAAAATTCCAACCGAAAATCGCGAGGTTACTTTTTTGGAGCCCGAAAACCACCCAAAATCAAGGAAAAATGGCCAAAAAATGCCAAAAAATAGCGAAAATACCCCGAAAATTGGCAAAAATTAACAAAAAATAGCGAATTTCCCTGAATTTTAGGCGAAAAAACCCCCGAAAATGGCCAAAAACGCACTGAAAATCAAAATCTGAACGTCTACG (double strand) [K-DNA bent fragment in pPK201/CAT]”, for which the “activity on this sequence” value (hotspot in subset of oligo A tracts, used about equally with the pBS hotspot) is “active”. Regarding “AAAAAAAGGATCTCAAGAAGATCCTTTGATCTTTTCTACGGGGTCTGACGCTCAGTGGAACGAAAACTCACGTTAAGGGATTTTGGTCATGAGATTATCAAAAAGGATCTTCACCTAGATCCTTTTAAATTAAAAATGAAGTTTTAAATCAATCTAAAGTATAT [relaxed closed circular pBS]”, the “activity on this sequence” value (four times more enzyme needed than for supercoiled, same cleavage specificity, variant of pBS plasmid cleavage hotspot region) is “less active”. In the case of “AAAAAAAGGATCTCAAGAAGATCCTTTGATCTTTTCTACGGGGTCTGACGCTCAGTGGAACGAAAACTCACGTTAAGGGATTTTGGTCATGAGATTATCAAAAAGGATCTTCACCTAGATCCTTTTAAATTAAAAATGAAGTTTTAAATCAATCTAAAGTATAT (double strand) [pBS plasmid cleavage hotspot region]”, for the setting “preferred nicking sites mapped by primer extension, 5 mM MgCl2, 50 mM KCl, pH 7.6, 37 C”, the “activity on this sequence” value is listed as “active”.
